Results are given in words; binding and its absence hold for the method and conditions named. Some binding calls cover weakened binding; strength is not graded here. Tags and fused reporters may be left off the sequences shown.
Biological target: T1, GST-Cep104^746-875 (ZNF) (human) (UniProt O60308)
T1 sequence: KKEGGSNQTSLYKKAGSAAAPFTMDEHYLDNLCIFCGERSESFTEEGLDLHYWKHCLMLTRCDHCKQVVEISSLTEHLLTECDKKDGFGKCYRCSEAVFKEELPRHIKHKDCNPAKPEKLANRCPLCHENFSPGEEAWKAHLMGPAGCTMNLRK
Experiment: pull-down; in vitro: 30 ug GST-Cep104^746-875 on Glutathione Sepharose 4B; Nek1^451-677 (26 uM), CP110^906-936 (66 uM), D. rerio STIL^404-448 (127 uM) or binary combinations, 1 h 4°C; PBS, 0.1% IGEPAL CA-630, 1 mM DTT; Coomassie gel; both purified

Amino acid sequences for entries named in this document (tags omitted). Residues count along the entry.
UniProt O43303, residues 906-936: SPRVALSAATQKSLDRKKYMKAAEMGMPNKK

CP110^906-936 (from UniProt O43303 906-936) (peptide)
binding: binds
